According to patent publication US20140370023A1 (HENRY M JACKSON FOUNDATION FOR THE ADVANCEMENT OF MILITARY …, published 2014):
Results are given in words; binding and its absence hold for the method and conditions named. Some entries that bind do so weakly or less than the wild type. For some assays here: Tags and fused reporters may be left off the sequences shown.

Assays:
[1] = biological target: T1, ERG protein encoded by the TMPRSS2/ERG3 fusion transcript (50-52 kDa) (human) (UniProt P11308); experiment: Western blot of transfected HEK-293 lysates
T1 sequence: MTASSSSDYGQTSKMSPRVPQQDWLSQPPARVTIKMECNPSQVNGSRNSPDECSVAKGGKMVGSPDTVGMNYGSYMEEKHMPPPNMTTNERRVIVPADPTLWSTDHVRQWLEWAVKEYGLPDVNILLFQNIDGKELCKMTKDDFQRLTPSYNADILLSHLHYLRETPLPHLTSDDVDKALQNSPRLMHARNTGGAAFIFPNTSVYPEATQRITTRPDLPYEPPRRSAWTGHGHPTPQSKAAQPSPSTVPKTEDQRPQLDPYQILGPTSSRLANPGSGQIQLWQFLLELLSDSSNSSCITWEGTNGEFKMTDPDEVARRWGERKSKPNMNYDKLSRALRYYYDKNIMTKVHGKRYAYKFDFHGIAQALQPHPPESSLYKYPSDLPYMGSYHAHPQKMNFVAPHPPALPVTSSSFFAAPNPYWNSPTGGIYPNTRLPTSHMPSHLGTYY

[2] = biological target: T1, ERG protein encoded by the TMPRSS2/ERG3 fusion transcript (50-52 kDa) (human); experiment: Western blot of TMPRSS2/ERG3 transfected HEK293 cells, 9FY at 1:5000
[3] = biological target: T1, ERG protein encoded by the TMPRSS2/ERG3 fusion transcript (50-52 kDa) (human); experiment: IF on VCaP cells
[4] = biological target: T1, ERG protein encoded by the TMPRSS2/ERG3 fusion transcript (50-52 kDa) (human); experiment: Western blot of transfected HEK-293 lysates, 9FY at 1:5000
[5] = biological target: T2, mouse ERG protein (mouse) (UniProt P81270); experiment: IHC on FFPE mouse prostate tissue, 1:1000
T2 sequence (looked up): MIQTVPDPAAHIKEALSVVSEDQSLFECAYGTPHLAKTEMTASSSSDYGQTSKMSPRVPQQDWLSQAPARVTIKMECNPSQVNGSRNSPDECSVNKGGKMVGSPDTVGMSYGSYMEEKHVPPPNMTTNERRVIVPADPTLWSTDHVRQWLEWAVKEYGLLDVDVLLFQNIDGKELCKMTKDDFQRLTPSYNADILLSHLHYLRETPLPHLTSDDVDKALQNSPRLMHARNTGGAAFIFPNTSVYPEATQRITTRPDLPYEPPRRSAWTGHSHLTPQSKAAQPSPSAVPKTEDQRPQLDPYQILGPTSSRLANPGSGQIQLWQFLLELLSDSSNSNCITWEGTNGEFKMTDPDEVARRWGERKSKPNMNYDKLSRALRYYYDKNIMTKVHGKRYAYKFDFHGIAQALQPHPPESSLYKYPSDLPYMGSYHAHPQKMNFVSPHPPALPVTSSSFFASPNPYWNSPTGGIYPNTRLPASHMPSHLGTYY

[6] = biological target: T1, ERG protein encoded by the TMPRSS2/ERG3 fusion transcript (50-52 kDa) (human); experiment: chromatin immunoprecipitation, VCaP cells
[7] = biological target: T1, ERG protein encoded by the TMPRSS2/ERG3 fusion transcript (50-52 kDa) (human); experiment: competitive IF on VCaP cells
[8] = biological target: T1, ERG protein encoded by the TMPRSS2/ERG3 fusion transcript (50-52 kDa) (human); experiment: IF on VCaP cells; also at 1:5,000 to 1:20,000 dilution of 3.7 mg/ml stock
[9] = biological target: T3, protein product encoded by TMPRSS2/ERG2 (approximately 50-52 kDa) (human) (UniProt P11308); experiment: Western blot of R1881-induced VCaP lysates
T3 sequence (looked up): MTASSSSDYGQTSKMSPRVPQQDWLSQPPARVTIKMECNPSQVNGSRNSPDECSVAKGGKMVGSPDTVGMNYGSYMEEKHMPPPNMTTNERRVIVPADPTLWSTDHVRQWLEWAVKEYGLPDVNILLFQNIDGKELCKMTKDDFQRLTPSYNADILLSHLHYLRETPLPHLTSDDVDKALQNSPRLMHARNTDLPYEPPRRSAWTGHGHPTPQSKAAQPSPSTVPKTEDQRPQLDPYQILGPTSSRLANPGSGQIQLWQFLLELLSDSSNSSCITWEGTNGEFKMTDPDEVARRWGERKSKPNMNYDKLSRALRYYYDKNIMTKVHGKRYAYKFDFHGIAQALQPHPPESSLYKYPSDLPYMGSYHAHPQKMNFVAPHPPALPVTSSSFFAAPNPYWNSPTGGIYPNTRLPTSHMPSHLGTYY

[10] = biological target: T1, ERG protein encoded by the TMPRSS2/ERG3 fusion transcript (50-52 kDa) (human); experiment: Western blot of R1881-induced VCaP lysates
[11] = biological target: T1, ERG protein encoded by the TMPRSS2/ERG3 fusion transcript (50-52 kDa) (human); experiment: immunoblot of pIRES-TMPRSS2-ERG3 transfected HEK293 lysates
[12] = biological target: T1, ERG protein encoded by the TMPRSS2/ERG3 fusion transcript (50-52 kDa) (human); experiment: immunoblot of R1881-treated VCaP cell lysates
[13] = biological target: T1, ERG protein encoded by the TMPRSS2/ERG3 fusion transcript (50-52 kDa) (human); experiment: chromatin immunoprecipitation, R1881-treated VCaP cells
[14] = biological target: T4, human ERG3 (encoded by TMPRSS2/ERG3 construct) with C-terminal FLAG tag (human) (UniProt P11308); experiment: Western blot of transiently expressed FLAG-tagged proteins
T4 sequence: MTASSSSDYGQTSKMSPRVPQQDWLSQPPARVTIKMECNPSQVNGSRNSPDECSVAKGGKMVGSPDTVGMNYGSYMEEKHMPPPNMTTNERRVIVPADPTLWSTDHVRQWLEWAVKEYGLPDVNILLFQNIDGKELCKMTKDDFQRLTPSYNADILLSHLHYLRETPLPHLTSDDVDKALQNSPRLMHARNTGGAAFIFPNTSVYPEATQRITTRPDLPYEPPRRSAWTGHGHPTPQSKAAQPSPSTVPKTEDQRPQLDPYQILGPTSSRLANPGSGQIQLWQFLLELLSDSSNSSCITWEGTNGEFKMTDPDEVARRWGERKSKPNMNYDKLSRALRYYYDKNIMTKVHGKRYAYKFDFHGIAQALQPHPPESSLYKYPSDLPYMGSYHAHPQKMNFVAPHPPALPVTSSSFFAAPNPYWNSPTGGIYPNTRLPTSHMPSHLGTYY

Measured: binding

B1: 9FY antibody (monoclonal antibody produced by the hybridoma clone 9FY) (antibody, V domains shown)
VH: QIQLVQSGPDLKKPGETVKISCKASGYTFTNYGINWVKQAPGKGFKWMGWIDTYTGEPTYVDDFKGRFVFSLETSASTAYLQINNLKNEDTATYFCVRKRAYDYEIYWGQGTPLTVSS
VL: ENVLTQSPAIMSASLGEKVTLSCRASSSVYYMFWYQQKSDASPKLWIYYTSNLAPGVPARFSGSGSGNSYSLTISSVEGEDAATYYCLQFSTSPWTFGGGTKLEIKR
notes: Mouse (Balb/C) hybridoma antibody purified from ascites over Protein G; sub-type determined to be IgG; also called ERG-MAb; 9FY monoclonal antibody
binds: all assays above
